Experimental data as given in PMC7333360.
Changes are numbered by the printed parent chain. Results are given in words; binding and its absence hold for the method and conditions named. In cells and extracts the contact can be indirect. Some entries that bind do so weakly or less than the wild type.

How the values were obtained:
[1] = target: T1, TAB1 S393A, mouse (from homozygous Tab1 S393A knock-in mice) (mouse (endogenous in brain tissue)) (UniProt Q8CF89); test: co-IP; endogenous TAB1 immunoprecipitated from 1 mg cleared mouse brain lysate (1 % Triton-X100 lysis buffer with 10 μM GlcNAcstatin G) with 10 μg anti-TAB1 on Dynabeads Protein G, 2 h at 4 °C; washes with lysis buffer containing 0.25 M NaCl; blotted with anti-TAK1 and anti-TAB1; IgG isotype …
T1 sequence: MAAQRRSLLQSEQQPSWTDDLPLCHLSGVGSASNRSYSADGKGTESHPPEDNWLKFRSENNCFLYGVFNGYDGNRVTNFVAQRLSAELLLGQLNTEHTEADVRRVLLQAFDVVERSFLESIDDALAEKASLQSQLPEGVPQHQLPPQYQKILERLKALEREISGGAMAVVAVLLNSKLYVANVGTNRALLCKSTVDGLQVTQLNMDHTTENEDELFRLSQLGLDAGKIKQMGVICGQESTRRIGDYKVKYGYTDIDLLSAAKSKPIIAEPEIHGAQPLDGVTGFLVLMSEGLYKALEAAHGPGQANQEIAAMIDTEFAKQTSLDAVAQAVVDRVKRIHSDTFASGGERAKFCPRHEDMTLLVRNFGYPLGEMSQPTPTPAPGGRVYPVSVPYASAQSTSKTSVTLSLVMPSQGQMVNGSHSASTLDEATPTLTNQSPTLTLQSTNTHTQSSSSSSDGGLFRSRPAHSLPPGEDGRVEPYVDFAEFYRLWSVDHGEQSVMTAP

[2] = target: T2, TGF-β activated kinase-1 binding protein-1 (TAB1), wild type, mouse (mouse (endogenous in brain tissue)) (UniProt Q8CF89); test: as above
T2 sequence (chain, O-GlcNAc at Ser393 (TAB1 was found glycosylated in WT animals)): T1 sequence with A393S

binding [1]: binds
binding [2]: binds
B1: TGF-β activated kinase-1 (TAK1), mouse (protein, UniProt Q62073 1-579)
chain: MSTASAASSSSSSSASEMIEAPSQVLNFEEIDYKEIEVEEVVGRGAFGVVCKAKWRAKDVAIKQIESESERKAFIVELRQLSRVNHPNIVKLYGACLNPVCLVMEYAEGGSLYNVLHGAEPLPYYTAAHAMSWCLQCSQGVAYLHSMQPKALIHRDLKPPNLLLVAGGTVLKICDFGTACDIQTHMTNNKGSAAWMAPEVFEGSNYSEKCDVFSWGIILWEVITRRKPFDEIGGPAFRIMWAVHNGTRPPLIKNLPKPIESLMTRCWSKDPSQRPSMEEIVKIMTHLMRYFPGADEPLQYPCQYSDEGQSNSATSTGSFMDIASTNTSNKSDTNMEQVPATNDTIKRLESKLLKNQAKQQSESGRLSLGASRGSSVESLPPTSEGKRMSADMSEIEARIVATAGNGQPRRRSIQDLTVTGTEPGQVSSRSSSPSVRMITTSGPTSEKPARSHPWTPDDSTDTNGSDNSIPMAYLTLDHQLQPLAPCPNSKESMAVFEQHCKMAQEYMKVQTEIALLLQRKQELVAELDQDEKDQQNTSRLVQEHKKLLDENKSLSTYYQQCKKQLEVIRSQQQKRQGTS
